Data: patent US20060058263A1, “Heat pasturized liquids containing glucosamine” (priority 2002, published 2006)

Assay: Difference From Control sensory panel, Libby's White Grape Juicy Juice with GLCN heated to simulate pasteurization
Settings: 0.75 g GLCN/serving, 195° F. for 42 seconds, average of 12 panelists, scale −5 to +5 vs control
Description: Libby's White Grape Juicy Juice® was used as the basis for incorporation of samples. White Grape was chosen due to its light color, to help panelists observe any color change. According to the manufacturer, a 64 ounce bottle contains 8 servings of 8 ounces each.
For servings that included GLCN, the serving (8 ounces) had 0.75 g GLCN added, which reflects a typical amount of GLCN delivered in dietary supplement products. 16-ounce portions of juice were used. To the appropriate batches, 1.5 g of GLCN (16 ounces is two servings, and 2 servings×0.75 g/serving=1.5 g) was added. After preparing the samples, they were heated to 195∓4° F. in a microwave, held at that temperature for 42 seconds to simulate heat pasteurization, then cooled as described in Example 1.
Samples were tested according to the methodology and instructions in Example 1.

SMILES | Color | Mouthfeel/texture | Odor | Taste
Cl.N[C@H]1C(O)O[C@H](CO)[C@@H](O)[C@@H]1O (some centres unmarked) [Fungal GLCN] | −0.2 | −0.3 | −0.3 | −0.6
Cl.N[C@H]1C(O)O[C@H](CO)[C@@H](O)[C@@H]1O (some centres unmarked) [Shellfish GLCN, reference compound] | −0.4 | −0.3 | −0.1 | −1.1
